Assay results: article PMC9396411
These are yes or no findings as the source states them, for the method shown. In cells and extracts the contact can be indirect. Some entries that bind do so weakly or less than the wild type. One block for each molecule: values may come before it.

The chains behind the UniProt entries cited, without tags or fusion partners. Residues count along the entry.
UniProt P39688: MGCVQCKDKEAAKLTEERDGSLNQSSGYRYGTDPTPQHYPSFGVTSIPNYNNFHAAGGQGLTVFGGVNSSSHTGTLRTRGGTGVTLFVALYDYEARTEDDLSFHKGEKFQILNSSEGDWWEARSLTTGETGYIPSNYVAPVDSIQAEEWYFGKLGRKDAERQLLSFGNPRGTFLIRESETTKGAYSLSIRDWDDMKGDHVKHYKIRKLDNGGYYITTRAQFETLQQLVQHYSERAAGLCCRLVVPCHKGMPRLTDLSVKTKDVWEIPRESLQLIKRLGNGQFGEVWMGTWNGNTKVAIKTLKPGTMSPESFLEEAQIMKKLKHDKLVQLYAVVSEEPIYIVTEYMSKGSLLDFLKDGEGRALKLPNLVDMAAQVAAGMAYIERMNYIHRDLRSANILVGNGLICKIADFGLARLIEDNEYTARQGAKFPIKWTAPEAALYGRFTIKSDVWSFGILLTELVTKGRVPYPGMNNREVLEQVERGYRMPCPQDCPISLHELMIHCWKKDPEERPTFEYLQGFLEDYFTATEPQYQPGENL
UniProt Q08509: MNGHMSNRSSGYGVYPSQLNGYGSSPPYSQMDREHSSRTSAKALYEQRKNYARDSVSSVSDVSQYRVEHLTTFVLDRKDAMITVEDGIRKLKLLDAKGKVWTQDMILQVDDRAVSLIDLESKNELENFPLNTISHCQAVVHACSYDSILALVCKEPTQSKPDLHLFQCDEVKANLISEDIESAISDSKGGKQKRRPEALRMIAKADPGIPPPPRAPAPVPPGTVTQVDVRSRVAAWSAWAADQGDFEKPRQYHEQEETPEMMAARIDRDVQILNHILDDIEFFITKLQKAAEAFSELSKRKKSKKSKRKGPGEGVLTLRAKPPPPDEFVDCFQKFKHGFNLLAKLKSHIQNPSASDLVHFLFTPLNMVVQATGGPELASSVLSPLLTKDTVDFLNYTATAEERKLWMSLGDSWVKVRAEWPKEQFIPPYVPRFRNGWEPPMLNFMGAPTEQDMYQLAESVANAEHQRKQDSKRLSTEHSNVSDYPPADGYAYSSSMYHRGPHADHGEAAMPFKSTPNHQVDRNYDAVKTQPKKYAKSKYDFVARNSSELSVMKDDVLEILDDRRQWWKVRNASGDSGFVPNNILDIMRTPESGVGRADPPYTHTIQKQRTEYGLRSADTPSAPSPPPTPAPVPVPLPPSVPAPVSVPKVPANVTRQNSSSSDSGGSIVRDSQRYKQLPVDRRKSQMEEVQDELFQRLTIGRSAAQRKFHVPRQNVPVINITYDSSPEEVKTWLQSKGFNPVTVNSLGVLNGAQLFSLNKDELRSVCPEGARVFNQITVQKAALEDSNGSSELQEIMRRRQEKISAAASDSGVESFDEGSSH
UniProt Q9JLB9, residues 58-549: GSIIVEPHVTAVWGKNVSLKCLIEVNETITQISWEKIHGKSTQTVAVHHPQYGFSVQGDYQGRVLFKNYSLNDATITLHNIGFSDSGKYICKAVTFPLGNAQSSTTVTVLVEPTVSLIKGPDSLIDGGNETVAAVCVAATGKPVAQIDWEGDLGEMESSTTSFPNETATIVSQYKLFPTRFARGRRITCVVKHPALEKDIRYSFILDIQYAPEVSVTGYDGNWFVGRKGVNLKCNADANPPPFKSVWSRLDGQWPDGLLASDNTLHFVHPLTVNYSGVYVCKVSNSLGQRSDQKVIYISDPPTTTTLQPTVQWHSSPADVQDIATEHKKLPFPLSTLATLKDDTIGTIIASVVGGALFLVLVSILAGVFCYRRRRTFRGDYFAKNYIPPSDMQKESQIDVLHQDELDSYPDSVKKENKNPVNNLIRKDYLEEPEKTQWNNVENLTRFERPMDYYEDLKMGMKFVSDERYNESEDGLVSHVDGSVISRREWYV
UniProt P07356: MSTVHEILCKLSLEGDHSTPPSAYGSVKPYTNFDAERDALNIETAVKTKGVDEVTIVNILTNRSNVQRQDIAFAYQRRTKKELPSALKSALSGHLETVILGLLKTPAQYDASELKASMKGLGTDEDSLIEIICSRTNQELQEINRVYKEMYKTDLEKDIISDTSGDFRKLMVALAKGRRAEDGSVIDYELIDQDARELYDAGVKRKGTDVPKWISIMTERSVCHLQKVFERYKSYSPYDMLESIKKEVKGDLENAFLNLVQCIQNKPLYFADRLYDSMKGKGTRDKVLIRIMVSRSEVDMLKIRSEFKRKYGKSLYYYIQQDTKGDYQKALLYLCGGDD
UniProt Q02248: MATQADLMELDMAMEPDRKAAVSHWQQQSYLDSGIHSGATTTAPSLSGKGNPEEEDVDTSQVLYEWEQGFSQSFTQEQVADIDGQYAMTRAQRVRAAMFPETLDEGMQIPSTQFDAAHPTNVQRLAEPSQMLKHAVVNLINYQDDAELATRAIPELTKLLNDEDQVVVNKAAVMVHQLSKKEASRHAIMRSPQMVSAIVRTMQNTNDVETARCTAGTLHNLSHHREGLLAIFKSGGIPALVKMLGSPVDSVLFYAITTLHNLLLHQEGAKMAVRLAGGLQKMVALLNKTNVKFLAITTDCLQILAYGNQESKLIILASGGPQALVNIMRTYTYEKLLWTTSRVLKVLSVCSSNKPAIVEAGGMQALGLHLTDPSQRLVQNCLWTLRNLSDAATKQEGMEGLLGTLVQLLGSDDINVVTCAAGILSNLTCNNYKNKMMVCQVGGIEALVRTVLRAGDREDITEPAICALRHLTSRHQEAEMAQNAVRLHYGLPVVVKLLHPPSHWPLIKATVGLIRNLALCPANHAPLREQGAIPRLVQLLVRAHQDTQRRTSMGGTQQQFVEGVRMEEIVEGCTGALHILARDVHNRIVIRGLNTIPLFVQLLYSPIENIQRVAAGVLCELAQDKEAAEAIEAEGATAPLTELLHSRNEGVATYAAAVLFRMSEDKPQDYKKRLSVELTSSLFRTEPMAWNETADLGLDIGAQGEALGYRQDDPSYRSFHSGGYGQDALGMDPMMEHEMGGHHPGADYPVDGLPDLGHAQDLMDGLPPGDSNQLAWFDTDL

Molecular target: FYN (mouse (endogenous in testis)) (UniProt P39688)
Test: co-IP; precleared mouse testis lysate (~800 µg total protein) with 2 µg antibody (anti-FYN IgG) overnight at 4°C, Protein A/G plus-agarose 6 h, washed with IP lysis buffer, immunoblot; negative control normal rabbit IgG; untreated adult mice, and for Arp3 also mice 6, 16, 24 and 48 h after CdCl2 (3 mg/kg b.w., i.p.)

Molecule: Eps8 (epidermal growth factor receptor pathway substrate 8) (from UniProt Q08509 1-821)
binding: binds

B1: CAR (protein, UniProt P97792 20-365)
chain: LSITTPEQRIEKAKGETAYLPCKFTLSPEDQGPLDIEWLISPSDNQIVDQVIILYSGDKIYDNYYPDLKGRVHFTSNDVKSGDASINVTNLQLSDIGTYQCKVKKAPGVANKKFLLTVLVKPSGTRCFVDGSEEIGNDFKLKCEPKEGSLPLQFEWQKLSDSQTMPTPWLAEMTSPVISVKNASSEYSGTYSCTVQNRVGSDQCMLRLDVVPPSNRAGTIAGAVIGTLLALVLIGAILFCCHRKRREEKYEKEVHHDIREDVPPPKSRTSTARSYIGSNHSSLGSMSPSNMEGYSKTQYNQVPSEDFERAPQSPTLAPAKVAAPNLSRMGAVPVMIPAQSKDGSIV
binding: binds

B2: occludin (protein, UniProt Q61146 1-521)
chain: MSVRPFESPPPYRPDEFKPNHYAPSNDMYGGEMHVRPMLSQPAYSFYPEDEILHFYKWTSPPGVIRILSMLIIVMCIAIFACVASTLAWDRGYGTGLFGGSLNYPYSGFGYGGGYGGGYGGYGYGYGGYTDPRAAKGFLLAMAAFCFIASLVIFVTSVIRSGMSRTRRYYLIVIIVSAILGIMVFIATIVYIMGVNPTAQASGSMYGSQIYMICNQFYTPGGTGLYVDQYLYHYCVVDPQEAIAIVLGFMIIVAFALIIFFAVKTRRKMDRYDKSNILWDKEHIYDEQPPNVEEWVKNVSAGTQDMPPPPSDYAERVDSPMAYSSNGKVNGKRSYPESFYKSTPLVPEVAQEIPLTLSVDDFRQPRYSSNGNLETPSKRAPTKGKAGKGKRTDPDHYETDYTTGGESCEELEEDWVREYPPITSDQQRQLYKRNFDAGLQEYKSLQAELDDVNKELSRLDKELDDYREESEEYMAAADEYNRLKQVKGSADYKSKRNYCKQLKSKLSHIKRMVGDYDRRKP
binding: binds

Other lines, results leading:

binding: binds
Molecule: nectin-3 (from UniProt Q9JLB9 58-549)

binding: binds
Molecule: annexin A2 (from UniProt P07356 1-339)

binding: binds
Molecule: β-catenin (from UniProt Q02248 1-781)
